Results as given in the supplement of paper PMC7661543.
The effect of the compound repeats well; differences between the knockouts mostly do not.

System: BT-20
Test: relative cell number vs DMSO control (72 h) (% of DMSO); higher = less growth inhibition (more cells)
Experimental: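 QMAP-Seq: a pool of 5 breast cancer cell lines (ZR-75-1, SKBR3, HCC-38, MDA-MB-231, BT-20), each carrying 12 doxycycline-inducible Cas9 sgRNA perturbations (11 knockouts plus non-targeting sgNT), was treated with compounds for 72 h at four 10-fold doses (10 nM-10 uM or 1 nM-1 uM range). Barcodes were amplified and sequenced, and cell number was interpolated from 293T spike-in standard curves. The result is expressed as % of the median of DMSO wells. Two biological replicates.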

C[C@]12CC[C@H](O)CC1=CC[C@@H]1[C@@H]2CC[C@]2(C)C(c3cccnc3)=CC[C@@H]12 [Abiraterone]
Settings | relative cell number
sgRNA knockout: sgATF3, 1 nM | 104.1
sgRNA knockout: sgATF3, 10 nM | 114
sgRNA knockout: sgATF3, 100 nM | 106
sgRNA knockout: sgATF3, 1000 nM | 95.6
sgRNA knockout: sgATF4, 1 nM | 120
sgRNA knockout: sgATF4, 10 nM | 116
sgRNA knockout: sgATF4, 100 nM | 116
sgRNA knockout: sgATF4, 1000 nM | 105
sgRNA knockout: sgATF6, 1 nM | 109
sgRNA knockout: sgATF6, 10 nM | 111
sgRNA knockout: sgATF6, 100 nM | 94.6
sgRNA knockout: sgATF6, 1000 nM | 105
sgRNA knockout: sgATG7, 1 nM | 114
sgRNA knockout: sgATG7, 10 nM | 127
sgRNA knockout: sgATG7, 100 nM | 101
sgRNA knockout: sgATG7, 1000 nM | 105
sgRNA knockout: sgERN1, 1 nM | 103
sgRNA knockout: sgERN1, 10 nM | 112
sgRNA knockout: sgERN1, 100 nM | 107
sgRNA knockout: sgERN1, 1000 nM | 113
sgRNA knockout: sgHSF1, 1 nM | 109
sgRNA knockout: sgHSF1, 10 nM | 105
sgRNA knockout: sgHSF1, 100 nM | 104
sgRNA knockout: sgHSF1, 1000 nM | 118
sgRNA knockout: sgHSF2, 1 nM | 104
sgRNA knockout: sgHSF2, 10 nM | 107.1
sgRNA knockout: sgHSF2, 100 nM | 115
sgRNA knockout: sgHSF2, 1000 nM | 104
sgRNA knockout: sgKEAP1, 1 nM | 109.9
sgRNA knockout: sgKEAP1, 10 nM | 119
sgRNA knockout: sgKEAP1, 100 nM | 96.3
sgRNA knockout: sgKEAP1, 1000 nM | 101
sgRNA knockout: sgNFE2L2, 1 nM | 110
sgRNA knockout: sgNFE2L2, 10 nM | 114
sgRNA knockout: sgNFE2L2, 100 nM | 136
sgRNA knockout: sgNFE2L2, 1000 nM | 109
sgRNA knockout: sgSLC35F2, 1 nM | 101
sgRNA knockout: sgSLC35F2, 10 nM | 118
sgRNA knockout: sgSLC35F2, 100 nM | 107
sgRNA knockout: sgSLC35F2, 1000 nM | 104
sgRNA knockout: sgXBP1, 1 nM | 108
sgRNA knockout: sgXBP1, 10 nM | 108
sgRNA knockout: sgXBP1, 100 nM | 111
sgRNA knockout: sgXBP1, 1000 nM | 107

CC(C)(C#N)c1cc(Cn2cncn2)cc(C(C)(C)C#N)c1 [Anastrozole]
Settings | relative cell number
sgRNA knockout: sgATF3, 1 nM | 122
sgRNA knockout: sgATF3, 10 nM | 108
sgRNA knockout: sgATF3, 100 nM | 100.7
sgRNA knockout: sgATF3, 1000 nM | 108
sgRNA knockout: sgATF4, 1 nM | 118
sgRNA knockout: sgATF4, 10 nM | 109
sgRNA knockout: sgATF4, 100 nM | 117
sgRNA knockout: sgATF4, 1000 nM | 102
sgRNA knockout: sgATF6, 1 nM | 123
sgRNA knockout: sgATF6, 10 nM | 115
sgRNA knockout: sgATF6, 100 nM | 114
sgRNA knockout: sgATF6, 1000 nM | 103
sgRNA knockout: sgATG7, 1 nM | 122
sgRNA knockout: sgATG7, 10 nM | 98.6
sgRNA knockout: sgATG7, 100 nM | 101
sgRNA knockout: sgATG7, 1000 nM | 99.2
sgRNA knockout: sgERN1, 1 nM | 121
sgRNA knockout: sgERN1, 10 nM | 106
sgRNA knockout: sgERN1, 100 nM | 96
sgRNA knockout: sgERN1, 1000 nM | 101
sgRNA knockout: sgHSF1, 1 nM | 123
sgRNA knockout: sgHSF1, 10 nM | 104
sgRNA knockout: sgHSF1, 100 nM | 118
sgRNA knockout: sgHSF1, 1000 nM | 105
sgRNA knockout: sgHSF2, 1 nM | 120
sgRNA knockout: sgHSF2, 10 nM | 116
sgRNA knockout: sgHSF2, 100 nM | 109
sgRNA knockout: sgHSF2, 1000 nM | 112
sgRNA knockout: sgKEAP1, 1 nM | 118
sgRNA knockout: sgKEAP1, 10 nM | 93.9
sgRNA knockout: sgKEAP1, 100 nM | 105
sgRNA knockout: sgKEAP1, 1000 nM | 114.8
sgRNA knockout: sgNFE2L2, 1 nM | 116
sgRNA knockout: sgNFE2L2, 10 nM | 120
sgRNA knockout: sgNFE2L2, 100 nM | 113.8
sgRNA knockout: sgNFE2L2, 1000 nM | 100
sgRNA knockout: sgSLC35F2, 1 nM | 96.6
sgRNA knockout: sgSLC35F2, 10 nM | 123
sgRNA knockout: sgSLC35F2, 100 nM | 113
sgRNA knockout: sgSLC35F2, 1000 nM | 95.1
sgRNA knockout: sgXBP1, 1 nM | 125
sgRNA knockout: sgXBP1, 10 nM | 128
sgRNA knockout: sgXBP1, 100 nM | 106
sgRNA knockout: sgXBP1, 1000 nM | 110

C[C@H]1CCC/C=C/[C@@H]2C[C@H](O)C[C@H]2[C@H](O)/C=C/C(=O)O1 [BrefeldinA]
Settings | relative cell number
sgRNA knockout: sgATF3, 10 nM | 90.6
sgRNA knockout: sgATF3, 100 nM | 30.4
sgRNA knockout: sgATF3, 1000 nM | 23.6
sgRNA knockout: sgATF3, 10000 nM | 31
sgRNA knockout: sgATF4, 10 nM | 92.5
sgRNA knockout: sgATF4, 100 nM | 31.1
sgRNA knockout: sgATF4, 1000 nM | 25.5
sgRNA knockout: sgATF4, 10000 nM | 33.3
sgRNA knockout: sgATF6, 10 nM | 86.8
sgRNA knockout: sgATF6, 100 nM | 29.2
sgRNA knockout: sgATF6, 1000 nM | 30.8
sgRNA knockout: sgATF6, 10000 nM | 26.7
sgRNA knockout: sgATG7, 10 nM | 90.8
sgRNA knockout: sgATG7, 100 nM | 25.5
sgRNA knockout: sgATG7, 1000 nM | 22.5
sgRNA knockout: sgATG7, 10000 nM | 30.9
sgRNA knockout: sgERN1, 10 nM | 81.6
sgRNA knockout: sgERN1, 100 nM | 25.3
sgRNA knockout: sgERN1, 1000 nM | 25.3
sgRNA knockout: sgERN1, 10000 nM | 27.5
sgRNA knockout: sgHSF1, 10 nM | 91.2
sgRNA knockout: sgHSF1, 100 nM | 26.2
sgRNA knockout: sgHSF1, 1000 nM | 27
sgRNA knockout: sgHSF1, 10000 nM | 30
sgRNA knockout: sgHSF2, 10 nM | 77.61
sgRNA knockout: sgHSF2, 100 nM | 29.1
sgRNA knockout: sgHSF2, 1000 nM | 23.5
sgRNA knockout: sgHSF2, 10000 nM | 33.5
sgRNA knockout: sgKEAP1, 10 nM | 92.9
sgRNA knockout: sgKEAP1, 100 nM | 24.9
sgRNA knockout: sgKEAP1, 1000 nM | 29.1
sgRNA knockout: sgKEAP1, 10000 nM | 38.8
sgRNA knockout: sgNFE2L2, 10 nM | 88.2
sgRNA knockout: sgNFE2L2, 100 nM | 32.1
sgRNA knockout: sgNFE2L2, 1000 nM | 24.6
sgRNA knockout: sgNFE2L2, 10000 nM | 31
sgRNA knockout: sgSLC35F2, 10 nM | 89
sgRNA knockout: sgSLC35F2, 100 nM | 31
sgRNA knockout: sgSLC35F2, 1000 nM | 26.8
sgRNA knockout: sgSLC35F2, 10000 nM | 28.3
sgRNA knockout: sgXBP1, 10 nM | 80.1
sgRNA knockout: sgXBP1, 100 nM | 30.6
sgRNA knockout: sgXBP1, 1000 nM | 23.9
sgRNA knockout: sgXBP1, 10000 nM | 30.9
